# The list shows a part of the results.
# Biological target: T1, OsSMF1 (Oryza sativa, UniProt Q6ZLB0 1-436)
# T1 sequence: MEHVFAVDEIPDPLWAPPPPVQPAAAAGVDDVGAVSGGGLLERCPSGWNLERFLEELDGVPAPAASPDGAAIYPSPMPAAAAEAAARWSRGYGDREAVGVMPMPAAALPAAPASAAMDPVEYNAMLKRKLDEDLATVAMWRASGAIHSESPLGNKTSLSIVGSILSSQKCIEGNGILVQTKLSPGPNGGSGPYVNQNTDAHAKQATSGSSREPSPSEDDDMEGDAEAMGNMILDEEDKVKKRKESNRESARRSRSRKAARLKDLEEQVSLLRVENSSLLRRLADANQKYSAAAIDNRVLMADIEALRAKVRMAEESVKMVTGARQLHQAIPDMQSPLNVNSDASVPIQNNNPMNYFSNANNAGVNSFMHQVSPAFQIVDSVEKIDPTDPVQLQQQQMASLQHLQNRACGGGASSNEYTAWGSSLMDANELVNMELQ
# Test: protein-binding microarray (RPBM); PBS, 2% BSA, 51.3 ng/ul salmon testes DNA, 50 uM zinc acetate, 200 nM TF, 25 C, 1 h; high values mean tight binding
# Conditions: protein: recombinant; tags: N-terminal polyhistidine and DsRed monomer fusion (pET32a); chain copies: 2; label: CyDye5-dUTP incorporated in the synthesized complementary strand; 3' TTTTT single-stranded linker to array surface; dsDNA, one strand shown
# Summary of the method: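 The binding signal is fluorescence intensity per feature, in arbitrary units, read on an Axon 4000B scanner. Polyhistidine- and DsRed-tagged transcription factors (N-terminal fusions) from E. coli BL21-CodonPlus were purified on Ni–NTA and applied at 200 nM for 1 h at 25 °C to a double-stranded, BSA-blocked custom Agilent array in buffer with 50 µM zinc acetate.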
row,Sequence,binding signal
1,GCGGAGCCGACGCGGCGGCGATGCTCGGCCGCGTGGCGGTCGGAGTCACCTAGTGCAG,3840 fluorescence intensity (a.u.)
2,GCCTTCCAAAACCGCGAAACTCCTCTCCTCGCCACGCGCGCGGAGTCACCTAGTGCAG,4390 fluorescence intensity (a.u.)
3,CCAGAGTACAGAGACGTTCCACCCACCCCGGGCCACCGAACGGAGTCACCTAGTGCAG,4150 fluorescence intensity (a.u.)
4,TTCTTTGCAGAATCTGAGTCATCGCCACGTCAAACAACCTCGGAGTCACCTAGTGCAG,15100 fluorescence intensity (a.u.)
5,GTATAAATCCTTGCCATGTATTACATCGTGTTAATCTGGTCGGAGTCACCTAGTGCAG,3820 fluorescence intensity (a.u.)
6,GGTTGGCTGCGTAGTGCGGTGGCGGACACTTGGTCCATCGCGGAGTCACCTAGTGCAG,3930 fluorescence intensity (a.u.)
7,GGCGGCGGGGAGGTGGCGGCAAGGGAGGCGGCGGCGAGGGCGGAGTCACCTAGTGCAG,5050 fluorescence intensity (a.u.)
8,TGGACTGCAGGCTGCAGAGCCCACCTCCTCCTGCATTGCACGGAGTCACCTAGTGCAG,7460 fluorescence intensity (a.u.)
9,ACCACCACGTGTCGCCGACCGCCTGCCACGTGGGCAGGGCCGGAGTCACCTAGTGCAG,24800 fluorescence intensity (a.u.)
10,AATGAAGTTTGAGAGTGACATACATAGTCTTAATCTGGCTCGGAGTCACCTAGTGCAG,3280 fluorescence intensity (a.u.)
11,GCCTCGAGATTCGTGCTCGCGGAACTTGCCGACGCGGCACCGGAGTCACCTAGTGCAG,5960 fluorescence intensity (a.u.)
12,GAATCTTGTGTTGACACGGCCGCAGATCTCACACGCGGTACGGAGTCACCTAGTGCAG,5410 fluorescence intensity (a.u.)
13,GGGGCTCACGCTGACTCCGCGTTATTGACTCGGGTCAAATCGGAGTCACCTAGTGCAG,4270 fluorescence intensity (a.u.)
14,TGATGTTCTTACTGGTGGTGCTGATGACAATACTGAACAGCGGAGTCACCTAGTGCAG,3840 fluorescence intensity (a.u.)
15,ACACGCGCAGCTCTGCCAGCGCAGCTCCCTCAGCACCTCTCGGAGTCACCTAGTGCAG,3450 fluorescence intensity (a.u.)
16,ACTACCCACTCATTGCCACGTGGGCGCCCGCCTCTGGGCCCGGAGTCACCTAGTGCAG,31400 fluorescence intensity (a.u.)
17,CTGATCTTTGCTTAGTGACGGGTGCCCTGTCCGAAAGAGACGGAGTCACCTAGTGCAG,3250 fluorescence intensity (a.u.)
18,TCTACAGTCACTCGCTTAGCCATGACATAAGCATCTTTCTCGGAGTCACCTAGTGCAG,4890 fluorescence intensity (a.u.)
19,CTAGGTCAACACCGCCATGTCAGCGCCACGTCAGCGAAACCGGAGTCACCTAGTGCAG,28700 fluorescence intensity (a.u.)
20,TGCTTCACCTTCACATATTGCACAAATTTAACCTCAGCTTCGGAGTCACCTAGTGCAG,3900 fluorescence intensity (a.u.)
21,TGTCTTTTCCTTGTCTCTCCTGATGTGTAAAACACAAGGCCGGAGTCACCTAGTGCAG,19500 fluorescence intensity (a.u.)

# Pulled one by one from above, three records:
row,Sequence,binding signal
13,GGGGCTCACGCTGACTCCGCGTTATTGACTCGGGTCAAATCGGAGTCACCTAGTGCAG,4270 fluorescence intensity (a.u.)
10,AATGAAGTTTGAGAGTGACATACATAGTCTTAATCTGGCTCGGAGTCACCTAGTGCAG,3280 fluorescence intensity (a.u.)
3,CCAGAGTACAGAGACGTTCCACCCACCCCGGGCCACCGAACGGAGTCACCTAGTGCAG,4150 fluorescence intensity (a.u.)

# Continuation.

row,Sequence,binding signal
1,CGCGCATTCCGGTGAACAAGTGCGTGGCGTGGCGATCGGCCGGAGTCACCTAGTGCAG,4670 fluorescence intensity (a.u.)
2,CTCCGCCGCCTTCCCCGCCGCCGACCACGTCGACGCCGTCCGGAGTCACCTAGTGCAG,7790 fluorescence intensity (a.u.)
3,GTGTGTGCTGTCGTTTTCTTACGTGGAGTCACGTGACTGGCGGAGTCACCTAGTGCAG,8350 fluorescence intensity (a.u.)
4,CTTCCAGTCCTGCCAACAACAGGACTGCCACCACACAGCACGGAGTCACCTAGTGCAG,4840 fluorescence intensity (a.u.)
5,TTGTGAATAATTGCTCTTGTGCTAAGAAAATTCCAACTTACGGAGTCACCTAGTGCAG,26400 fluorescence intensity (a.u.)
6,CGATTCTCTTCGAGCTCTTGAATGGCTATCCACCATTCCGCGGAGTCACCTAGTGCAG,3320 fluorescence intensity (a.u.)
7,ATGTCTCTGCATCCGGGTAGTGGGTACAAATAAGCTGAGGCGGAGTCACCTAGTGCAG,3930 fluorescence intensity (a.u.)
8,GCTGATTTTCAAGGCGGGGAGAATGTTATGTAATTGGGTCCGGAGTCACCTAGTGCAG,3290 fluorescence intensity (a.u.)
9,GACCTGCAAACACAGCGCACGCACGCGCAAGCACACACATCGGAGTCACCTAGTGCAG,3230 fluorescence intensity (a.u.)
10,TGCATGTCCTCCGTCTGATGACGTTATTCCTGAGTACTCACGGAGTCACCTAGTGCAG,5560 fluorescence intensity (a.u.)
11,TGGAGGTCGAACCAAACGCGGTGATCTGGAGCACGCTGCTCGGAGTCACCTAGTGCAG,3790 fluorescence intensity (a.u.)
12,GCACTGGTGGTCAAACAGGAGGTGTAAATGCAACGTCAGCCGGAGTCACCTAGTGCAG,4540 fluorescence intensity (a.u.)
13,TCAAAAGGAATGTTTCTATAGTGTACCCATCCAGATTTTACGGAGTCACCTAGTGCAG,4430 fluorescence intensity (a.u.)
14,TTAATTTTAGAAATATATGTATAACTACTAAATTAGTTAACGGAGTCACCTAGTGCAG,23800 fluorescence intensity (a.u.)
15,CCCACTGTATCCACTACCATCTCCCGTGTCCTCCTCCCACCGGAGTCACCTAGTGCAG,3480 fluorescence intensity (a.u.)
16,GCGTCGTCGGGATCGTGTACTCGTCGTAGCCACCACACCGCGGAGTCACCTAGTGCAG,4580 fluorescence intensity (a.u.)
17,GTGCCATTTTAGGGTGTTGATGTGGATCAACAAGAGATGACGGAGTCACCTAGTGCAG,3260 fluorescence intensity (a.u.)
18,CAAGCTAACCACGCATGGCCCACCTGTCATTCTGAGACAGCGGAGTCACCTAGTGCAG,3950 fluorescence intensity (a.u.)
19,TCTCCTCTCCGACACGACAGCGACTTCTCCCTCCCGCCACCGGAGTCACCTAGTGCAG,5440 fluorescence intensity (a.u.)
20,TTCGCGTCCTCCGTGTCGAGCAGGTCCTCCACATTAGAGGCGGAGTCACCTAGTGCAG,3410 fluorescence intensity (a.u.)
21,TTGCAATTGATCTAGCCGCTGAGGAGGACGGTAAAGTAGACGGAGTCACCTAGTGCAG,14700 fluorescence intensity (a.u.)

# From article PMC7819943, “Rice protein-binding microarrays: a tool to detect cis-acting elements near promoter regions in rice”
